Results are given in words; binding and its absence hold for the method and conditions named. Binding seen in cells or lysates may run through a third protein. Some binding calls cover weakened binding; strength is not graded here.
Molecular target: T1, SIRT1 (mouse (endogenous in mesangial cells; species only loosely stated)) (UniProt Q923E4)
T1 sequence: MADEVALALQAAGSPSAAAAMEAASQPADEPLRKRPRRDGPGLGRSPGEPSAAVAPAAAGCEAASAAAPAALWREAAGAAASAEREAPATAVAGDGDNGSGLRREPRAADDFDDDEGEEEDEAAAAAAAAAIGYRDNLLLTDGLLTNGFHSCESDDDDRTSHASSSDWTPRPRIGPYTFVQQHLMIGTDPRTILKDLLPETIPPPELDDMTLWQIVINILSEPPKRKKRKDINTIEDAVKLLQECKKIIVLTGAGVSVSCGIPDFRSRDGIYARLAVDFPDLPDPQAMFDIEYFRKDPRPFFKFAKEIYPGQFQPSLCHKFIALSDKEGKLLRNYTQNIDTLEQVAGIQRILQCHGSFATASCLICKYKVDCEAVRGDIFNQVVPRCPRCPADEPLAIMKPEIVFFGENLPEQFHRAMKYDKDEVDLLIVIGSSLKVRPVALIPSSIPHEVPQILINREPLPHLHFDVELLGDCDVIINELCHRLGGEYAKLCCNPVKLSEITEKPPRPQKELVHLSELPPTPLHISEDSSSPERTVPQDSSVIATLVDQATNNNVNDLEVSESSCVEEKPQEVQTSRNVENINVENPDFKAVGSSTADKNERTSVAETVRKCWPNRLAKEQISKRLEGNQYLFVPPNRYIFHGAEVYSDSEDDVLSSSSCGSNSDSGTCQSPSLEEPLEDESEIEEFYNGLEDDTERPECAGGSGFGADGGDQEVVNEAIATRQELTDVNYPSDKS
Experiment: co-IP; Pierce Co-Immunoprecipitation Kit; cell lysates kept with anti-SIRT1 antibody (ab110304) at 4 °C for 12 h, then magnetic beads coupled with rabbit anti-mouse IgG for 8 h at 4 °C; boiled with SDS buffer, western blotting

The chains behind the UniProt entries cited, without tags or fusion partners.
UniProt Q9WVH4: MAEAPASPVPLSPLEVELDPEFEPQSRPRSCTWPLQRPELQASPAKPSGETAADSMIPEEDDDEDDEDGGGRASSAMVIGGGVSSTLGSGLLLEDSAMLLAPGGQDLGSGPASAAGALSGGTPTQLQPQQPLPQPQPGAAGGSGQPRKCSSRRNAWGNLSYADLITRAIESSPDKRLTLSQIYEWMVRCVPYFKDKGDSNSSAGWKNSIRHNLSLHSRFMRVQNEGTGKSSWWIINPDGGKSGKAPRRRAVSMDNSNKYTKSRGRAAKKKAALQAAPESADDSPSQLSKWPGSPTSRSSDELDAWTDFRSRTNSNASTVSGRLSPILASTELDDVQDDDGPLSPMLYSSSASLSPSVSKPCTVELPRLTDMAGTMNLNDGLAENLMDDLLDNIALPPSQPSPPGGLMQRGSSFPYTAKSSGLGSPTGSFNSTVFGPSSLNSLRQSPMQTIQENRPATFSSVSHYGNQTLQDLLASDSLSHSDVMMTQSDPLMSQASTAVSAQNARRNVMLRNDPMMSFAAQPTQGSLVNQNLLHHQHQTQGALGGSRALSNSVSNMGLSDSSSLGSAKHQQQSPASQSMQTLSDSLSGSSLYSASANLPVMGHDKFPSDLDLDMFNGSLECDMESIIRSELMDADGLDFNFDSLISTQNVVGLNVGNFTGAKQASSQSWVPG
UniProt Q9R1E0: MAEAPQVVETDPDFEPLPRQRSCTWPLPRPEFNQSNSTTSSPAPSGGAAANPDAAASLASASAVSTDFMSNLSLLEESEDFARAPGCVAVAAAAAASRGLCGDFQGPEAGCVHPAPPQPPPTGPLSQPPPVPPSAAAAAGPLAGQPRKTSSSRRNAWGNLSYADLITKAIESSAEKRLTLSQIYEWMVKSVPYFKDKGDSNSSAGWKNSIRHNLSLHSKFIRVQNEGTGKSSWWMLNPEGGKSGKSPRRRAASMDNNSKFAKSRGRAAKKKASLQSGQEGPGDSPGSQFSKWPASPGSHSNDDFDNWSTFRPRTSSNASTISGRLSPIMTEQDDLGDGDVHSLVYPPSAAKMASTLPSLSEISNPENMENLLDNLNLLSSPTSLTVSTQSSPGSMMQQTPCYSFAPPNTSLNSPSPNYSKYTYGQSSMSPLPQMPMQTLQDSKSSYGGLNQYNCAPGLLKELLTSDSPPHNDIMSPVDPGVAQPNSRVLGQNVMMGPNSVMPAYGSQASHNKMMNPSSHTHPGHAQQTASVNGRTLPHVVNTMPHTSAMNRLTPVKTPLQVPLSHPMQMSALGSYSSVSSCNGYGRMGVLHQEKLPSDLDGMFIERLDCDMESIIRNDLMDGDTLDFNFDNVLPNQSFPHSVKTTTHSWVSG

binding	Substance
binds	FOXO3a (from UniProt Q9WVH4 1-672)
binds	FOXO1 (from UniProt Q9R1E0 1-652)

Reference: article PMC11253400
